# Construct, isoform or probe ends are uncertain for at least one entry. A negative result means that nothing was seen under these conditions.
# Columns and labels:
# Experiment in all cases: enzyme reaction in vitro
# [1] = test system: BseJI; conditions: purified recombinant protein, protein details: Fermentas
# [2] = test system: BseLI; conditions: purified recombinant protein, protein details: Fermentas
# [3] = test system: TspRI; conditions: site lost; mutant product still detectable with 1000-fold excess wild type; purified recombinant protein; protein details: New England Biolabs; variant of B-raf synthetic wild type template
# [4] = wild type degraded from 100:1 mixture, 85 C denaturation
sequence,measurement,setting,value
TTGACTCTATGATGAAAGATGTTGTTCCACGATATATTTCTCTGATATGCCCATATTATAAGAGTGCAAATAATGGGCTCCATTCCTTTATTAGCGGTTGTATAGTTTCATAGAGACCAATAGTAAGATATCTGAACTTATGTCCACATGTAATAGGGCTATACGAACAAATAGTCCATACACAAGATATAATGACGAGGAGAAGCACCACCAGACATATCGGAATATGCCGGATTAATGTTCATTACGCCTTACACAATGTCAAGTTTATAATCATAGGTCTGCATACATTTTGTGGATCGTAAT (double strand) [universal mutant template],activity on this sequence,"[1]; only mutant product detected, variant of universal wild type template",not active
same,activity on this sequence,"[2]; mutant product detected equally with wild type, variant of universal wild type template",not active
AGACATACTTATTGACTCTAAGAGGAAAGATGAAGTACTATGTTTTAAAGAATATTATATTACAGAATTATAGAAATTAGATCTCTTACCTAAACTCTTCATAATGCTTGCTCTGATAGGAAAATGAGCTCTACTGTTTTCCTTTACTTACTACACCTCAGATATATTTCTTCATGAAGACCTCACAGTAAAAATAGGTGATTTTGGTCTAGCTACAGAGAAATCTCGATGGAGTGGGTCCCATCAGTTTGAACAGCTGTCTGGATCCATTTTGTGGATGGTAAGAATTGAGGCTATTTTTCCACTGATTAAATTTTTGGCCCTGAGATGCTGCTGAGTTACTAGAAAGTCATTGAAGGTCTCAACTATAGTATTTTCATAGTTCCCAGT (double strand) [B-raf synthetic mutant template],activity on this sequence,[3],not active
TTGACTCTATGATGAAAGATGTTGTTCCAGGATATAATTCACTGATATGGCCATATTTAAACAGTCCAAATAATGGGCTGCATTGCTTTATTAGCGGATGTATAGATTCATAGTGACCTATAGTAAATGCATTGTACTTATGTGCACATGAAATAGCGCTATTCGAACAAATACTCCATACTCAAGATATAATGAGGAGCTGAACCACGACGAGACATAACGGAATATGCCGCATTAATGATCATTACGCGTTAGACAATGTCAAGATTATAATCATACGTCTGCATACATTTTGTGGATCGTAAT (double strand) [universal wild type template],activity on this sequence,[1]; [4],active
same,activity on this sequence,[2]; [4],active
